Results from publication PMC12040169 (PLOS Biology, 2025).
This is one part of the list.

Test system: T1, CTL2-GFP (C. trachomatis L2/434/Bu, GFP-expressing)
T1 construct: L2/434/Bu, GFP-expressing
Design: species or system HeLa; Intracellular C. trachomatis growth in HeLa cells, bulk GFP fluorescence relative to DMSO
Details: bulk GFP, single well; 28.5 h, 10 µM; inhibitor

Compound | % of control remaining [%]
CCOc1ccccc1N1C(=O)CC(Sc2nc(-c3ccccc3)c3cc(Cl)ccc3n2)C1=O (stereo not drawn) [CBK265405] | 91.4945
O=C(N/N=C/c1ccc(O)cc1)C(=O)N/N=C/c1ccc(O)cc1 [CBK261625] | 100
COc1ccccc1NC(=O)CN(c1ccc(Br)cc1)S(C)(=O)=O [CBK265254] | 108.303
O=[N+]([O-])c1ccccc1/C=C\C=N\n1c(S)nnc1-c1ccc(Cl)cc1Cl [CBK264405] | 136.491
COC(=O)c1ccc(S(=O)(=O)N2CCc3ccccc3C2)cc1 [CBK068696] | 122.967
CN(C)S(=O)(=O)N(CC(=O)NCC1CCCO1)c1ccccc1 (stereo not drawn) [CBK268192] | 101.548
c1ccc2oc(-c3cncc(N4CCN(CCN5CCCC5)CC4)n3)cc2c1 [CBK066052] | 138.429
O=C1c2cccc3cccc(c23)C(=O)N1CC1CCN(CC(O)COCC2COc3ccccc3O2)CC1 (stereo not drawn) [CBK074412C] | 130.774
O=C(O)c1[nH]c2ccccc2c1NS(=O)(=O)c1cc(Cl)sc1Cl [CBK049886] | 122.035
Fc1ccc(NC(=S)NCC2CC2)c(F)c1 [CBK011398] | 127.302
O=C(Nc1ccc(OC(F)(F)F)cc1)c1cnc(-c2ccc(Cl)cc2)c(-c2ccco2)c1 [CBK037456] | 82.2707
COc1ccc(S(=O)(=O)Nc2nccc(-c3ccc(CN4C(=O)CCC4=O)cc3)n2)cc1 [CBK067438] | 120.46
Cn1cc(C(=O)N2CCc3nc(-c4cccc(F)c4)sc3C2)cn1 [CBK281910] | 165.202
CCN(CC)C(=O)c1cnoc1-c1ccc(Br)cc1 [CBK153725] | 115.085
Cc1cc(OCC(O)CN2CCN(CCO)CC2)cc(C)c1Cl (stereo not drawn) [CBK278248C] | 91.247
Cc1cccnc1NC(=O)c1ccc(NCCc2ccccc2)c([N+](=O)[O-])c1 [CBK269543] | 132.086
CCCCn1nccc1NC(=O)NC(C)c1n[nH]c(C)n1 (stereo not drawn) [CBK307486] | 90.653
CC1(CC(=O)Nc2ccccc2)NC(=S)N(c2ccccc2)N1 (stereo not drawn) [CBK265534] | 117.444
Cc1cc(C(=O)NCc2ccc(-c3csnn3)cc2)n[nH]1 [CBK149314] | 110.592
CCOC(=O)CN1CCN(c2nccnc2Oc2ccc(OC)c(OC)c2)CC1 [CBK083052T] | 104.261
O=C(CSc1nnc(-c2cccnc2)n1Cc1ccccc1)Nc1ccc(Br)cc1 [CBK267527] | 125.551
Cn1c(=O)n(C)c2cc(CNCc3ccc(C(=O)O)cc3)ccc21 [CBK286538] | 113.332
Cc1cc(C)c2nn[nH]c2c1CN1CCCC1 [CBK018196] | 100.882
CCc1c(C)sc(NC(=S)Nc2cnccn2)c1C(=O)OC [CBK267088] | 117.812
O=C(CC1S/C(=N/N=C/c2ccc(-c3ccc(Br)cc3)o2)NC1=O)Nc1ccccc1 (stereo not drawn) [CBK264499] | 139.912
Nc1ncc(-c2ccco2)nc1-c1ccc(F)c(Cl)c1 [CBK064013] | 230.45

Gathered by group, the entries above containing bromine.
Compound | % of control remaining [%]
COc1ccccc1NC(=O)CN(c1ccc(Br)cc1)S(C)(=O)=O [CBK265254] | 108.303
CCN(CC)C(=O)c1cnoc1-c1ccc(Br)cc1 [CBK153725] | 115.085
O=C(CSc1nnc(-c2cccnc2)n1Cc1ccccc1)Nc1ccc(Br)cc1 [CBK267527] | 125.551
O=C(CC1S/C(=N/N=C/c2ccc(-c3ccc(Br)cc3)o2)NC1=O)Nc1ccccc1 (stereo not drawn) [CBK264499] | 139.912

(list continues)

Compound | % of control remaining [%]
O=C1Nc2cc(Cl)ccc2C(=O)N2CCN(C(=O)C3CCCCC3)C[C@H]12 [CBK289586] | 122.687
Cc1sc(-c2cccs2)nc1OC(=O)c1cccc(C(F)(F)F)c1 [CBK067748] | 93.3085
O=C(N[C@H]1CC[C@H](O)CC1)C1(Cc2cc(-c3ccc(F)cc3F)no2)CCOCC1 [CBK286352] | 112.29
Cn1c(CN2CCN(C3CCCCC3)C(=O)C2)nc2ccccc21 [CBK281893] | 140.706
O=C(CSCc1nc2ccccc2c(=O)n1-c1ccccc1Cl)Nc1ccccc1 [CBK070895] | 103.174
N=C(N)SCc1csc(-c2ccc(Br)cc2)n1 [CBK017064C] | 19.1703
Cc1cc(C)c2[nH]c(CC(=O)N(C)CCN(C)C)nc2c1 [CBK282727] | 149.762
CC(=O)Oc1ccc(C(=O)NCc2ccc3c(c2)OCO3)cc1 [CBK264372] | 125.673
CCN(CC)CCCNc1nc2ccc(O)cc2s1 [CBK023880C] | 101.149
O=C(Cc1c[nH]c2ccccc12)Nc1cccnc1N1CCNCC1 [CBK028265T] | 126.616
CC(CCCC(C)(C)O)Nc1cncc(-c2ccc(C(N)=O)cc2)n1 (stereo not drawn) [CBK066071] | 131.988
Cc1nc(CC(NC(=O)C(c2ccccc2)c2ccccc2)c2ccc(F)cc2)cc(=O)[nH]1 (stereo not drawn) [CBK285669] | 122.702
COc1ccc(C(=O)NCC(=O)Nc2ccc(N3CCCCC3)cc2)cc1OC [CBK295199] | 132.834
O=C(Nc1ccc(N2CCOCC2)c(Cl)c1)c1cccc(-n2cnnc2)c1 [CBK269853] | 123.53
COCC(=O)N1CCN(Cc2cccc(-c3ccccn3)c2)CC1 [CBK304035] | 98.6661
CCn1c(SCC(=O)NC2CCCCC2C)nnc1-c1cc2cccc(OC)c2o1 (stereo not drawn) [CBK267148] | 202.813
CC(=O)NC(CSc1cc(C)nc2ccc(F)cc12)C(=O)O (stereo not drawn) [CBK286815] | 141.941
CNC(=O)CN1C(=O)CC2(C1=O)C(=O)N(CCOC)c1ccc(OC)cc12 (stereo not drawn) [CBK075144] | 100
O=[N+]([O-])c1cccc(-c2cc(Nc3ccc4[nH]ccc4c3)ncn2)c1 [CBK090860] | 205.927
CCCCSc1nc(N)cc(N2CCC(N3CCCC3=O)CC2)n1 [CBK307525] | 90.6456
CCCC(=O)NC(NC(=S)Nc1ccccc1Cl)C(Cl)(Cl)Cl (stereo not drawn) [CBK261026] | 81.0791
C#CCNCc1ccc(O)cc1 [CBK013235C] | 144.891
Cc1ccc2c(c1)OC(C)(C)CC2NS(=O)(=O)N1CCN(C)CC1 (stereo not drawn) [CBK307271] | 103.829
N#CCc1ccc(OC(=O)c2cccnc2)cc1 [CBK090304] | 88.0995
O=S(=O)(c1ccc(C(F)(F)F)cc1Cl)N1CCN(Cc2cccc(Br)c2)CC1 [CBK063163] | 113.642
Cc1ccc([N+](=O)[O-])c(OCCN2CCN(Cc3ccccc3)CC2)c1 [CBK268568G] | 114.307

Compound | % of control remaining [%]
COc1ccccc1NC(=O)CCn1c(C(F)F)cc2cccnc21 [CBK285065] | 127.131
COc1cc2c(c(OC)c1OC)C(c1ccccc1C)CC(=O)N2 (stereo not drawn) [CBK288205] | 118.038
CC1(NC(=O)CC2C(=O)NCCN2Cc2cccc(F)c2)CCC1 (stereo not drawn) [CBK281611] | 146.361
CC(=O)N[C@H]1CO[C@H]2[C@@H]1OC[C@H]2OC(=O)Nc1ccc(Oc2ccccc2)cc1 [CBK289470] | 88.3517
COc1ccc(C(C)c2cc3c(cc2OC)OCO3)c(F)c1 (stereo not drawn) [CBK200112] | 103.027
N#CC1=C(Nc2ccccc2)Oc2cc(N)ccc2C1c1cccnc1 (stereo not drawn) [CBK269435] | 88.7205
O=C(O)C1C2C=CC(C2)C1C(=O)N1CCN(Cc2ccc(Cl)cc2)CC1 (stereo not drawn) [CBK270318] | 136.222
Cc1cc(C)c(NC(=O)CSc2n[nH]c(=O)n2C2CC2)c(C)c1 [CBK295598] | 103.701
Cc1cc(C)cc(N(CC(=O)Nc2ccccc2-c2ccccc2)S(=O)(=O)c2ccccc2)c1 [CBK265933] | 106.241
Cc1nc2ccc(C(=O)NC(C)Cc3cccs3)cc2[nH]1 (stereo not drawn) [CBK282487] | 131.483
Fc1ccc(-c2cn(-c3ccc(OCc4ccccc4)c(F)c3)nn2)cc1 [CBK113121] | 173.54
COc1ccc(OC)c(NC(=O)CSc2ccc(-c3ccncc3)nn2)c1 [CBK287637] | 130.992
Cc1ccc(S(=O)(=O)NCCCN2CCOCC2)c(C)c1C [CBK264990] | 100
OCc1nnn(-c2ccncc2)c1CO [CBK288549] | 114.297
CC1CCN(CCCNS(=O)(=O)c2ccc(N3CCCC3=O)cc2)CC1 [CBK304220] | 140.741
Cc1csc(C(Cc2ccsc2)NC(=O)Cn2ccnc2)n1 (stereo not drawn) [CBK285113] | 135.571
CC1CCCCN1Cc1nc2c(c(=O)n(C)c(=O)n2C)n1Cc1ccc(Br)cc1 (stereo not drawn) [CBK269184] | 116.668
Cc1cccc(C2N3CCC4(CC3)c3[nH]c5ccccc5c3CCN24)n1 (stereo not drawn) [CBK284435] | 135.961
O=C(c1ccccc1)c1ccc2[nH]nnc2c1 [CBK091608] | 124.357
OCc1cccc(-c2nccnc2NCc2ccncc2)c1 [CBK037446] | 110.226
CC(=O)NCCc1nc2ccc(NC(=O)Cn3nc(C)c4ccccc4c3=O)cc2n1C [CBK268249] | 87.1526
O=C(CO)N1CC2(CCN(Cc3ccc(OC(F)(F)F)cc3)CC2)c2ccccc21 [CBK131493] | 100.106
C=CCN1C(=O)CC2(C1=O)C(=O)N(CCCN(C)S(C)(=O)=O)c1ccc(Cl)cc12 (stereo not drawn) [CBK075432] | 135.777
CCCC(=O)N(C)C1CCC2(CC1)CNC(=O)c1cc(C)ccc1O2 (stereo not drawn) [CBK281694] | 128.063
Cc1nn(C(C)C)c(C)c1CN1CCC(c2c(C(=O)NC(C)C)sc3ccccc23)C1 (stereo not drawn) [CBK285890] | 123.219
CCOc1cc([N+](=O)[O-])cc(C=O)c1OC(C)C(=O)O (stereo not drawn) [CBK264642] | 125.86
